Assay [1] addresses TPR domain of AtToc64 with a C-terminal hexa-histidine tag (AtToc64_TPR-H6) (Arabidopsis thaliana) (UniProt Q9LVH5). Briefly: AUC; sedimentation velocity, 70 µM protein alone (also with the Hsp70 or Hsp90 octapeptide), 25 mM Hepes, 100 mM KCl, pH 7.3, 20°C, 60,000 rpm, c(s) analysis in SEDFIT; both purified.
Assay [2] has the same target. The experiment in a line: SEC; Superdex 75 prep grade, 25 mM Hepes, 100 mM KCl, pH 7.3; 2 mL of protein at 8 mg/mL; calibrated with gel filtration standards; both purified. On the technique in general: Size exclusion chromatography separates by hydrodynamic size, large species first.

The values below come from article PMC3877065, “Ligand Recognition by the TPR Domain of the Import Factor Toc64 from Arabidopsis thaliana” (PLoS ONE, 2013).

These are yes or no findings as the source states them, for the method shown. Where a sequence is shown, tags or fusion partners need not be part of it.

B1: TPR domain of AtToc64 with a C-terminal hexa-histidine tag (AtToc64_TPR-H6) (domain or fragment, UniProt Q9LVH5 474-589)
chain: AEIAKEKGNQAFKEKLWQKAIGLYSEAIKLSDNNATYYSNRAAAYLELGGFLQAEEDCTKAITLDKKNVKAYLRRGTAREMLGDCKGAIEDFRYALVLEPNNKRASLSAERLRKFQ
For the molecule B1, the binding result in assay [1] is listed as “no binding (tested: 70 µM)”; in assay [2], “no binding (tested: 8 mg/mL applied)”.
